Values of other authors, collected in patent publication US20200107568A1, “METHOD FOR REDUCING LINGERING SWEET AFTERTASTE” (SUNTORY HOLDINGS LIMITED, priority 2017, published 2020).
For at least one compound, name, drawing or mass did not settle the structure.

Settings: cited from earlier work

Structure (SMILES)	Sweetness relative to sucrose
C=C1C[C@@]23CC[C@H]4[C@@](C)(CCC[C@@]4(C)C(=O)O[C@@H]4O[C@H](CO)[C@@H](O)[C@H](O)[C@H]4O[C@@H]4O[C@H](CO)[C@@H](O)[C@H](O)[C@H]4O)[C@@H]2CC[C@]1(O[C@@H]1O[C@H](CO)[C@@H](O)[C@H](O[C@@H]2O[C@H](CO)[C@@H](O)[C@H](O)[C@H]2O)[C@H]1O[C@@H]1O[C@H](CO)[C@@H](O)[C@H](O)[C@H]1O)C3 [Rebaudioside D, rebaudioside D]	about 200 times that of sucrose
C=C1C[C@@]23CC[C@H]4[C@@](C)(CCC[C@@]4(C)C(=O)O[C@@H]4O[C@H](CO)[C@@H](O)[C@H](O[C@@H]5O[C@H](CO)[C@@H](O)[C@H](O)[C@H]5O)[C@H]4O[C@@H]4O[C@H](CO)[C@@H](O)[C@H](O)[C@H]4O)[C@@H]2CC[C@]1(O[C@@H]1O[C@H](CO)[C@@H](O)[C@H](O[C@@H]2O[C@H](CO)[C@@H](O)[C@H](O)[C@H]2O)[C@H]1O[C@@H]1O[C@H](CO)[C@@H](O)[C@H](O)[C@H]1O)C3 [rebaudioside M]	about 200 times that of sucrose
